Results are given in words; binding and its absence hold for the method and conditions named. Binding seen in cells or lysates may run through a third protein. Here binding means that the protein was enriched with, or labelled near, the bait; the list need not be complete. One block for each binder: values may come before it.
Target: T1, Transglutaminase-2 (mouse (endogenous in mouse brain)) (UniProt P21981)
T1 sequence: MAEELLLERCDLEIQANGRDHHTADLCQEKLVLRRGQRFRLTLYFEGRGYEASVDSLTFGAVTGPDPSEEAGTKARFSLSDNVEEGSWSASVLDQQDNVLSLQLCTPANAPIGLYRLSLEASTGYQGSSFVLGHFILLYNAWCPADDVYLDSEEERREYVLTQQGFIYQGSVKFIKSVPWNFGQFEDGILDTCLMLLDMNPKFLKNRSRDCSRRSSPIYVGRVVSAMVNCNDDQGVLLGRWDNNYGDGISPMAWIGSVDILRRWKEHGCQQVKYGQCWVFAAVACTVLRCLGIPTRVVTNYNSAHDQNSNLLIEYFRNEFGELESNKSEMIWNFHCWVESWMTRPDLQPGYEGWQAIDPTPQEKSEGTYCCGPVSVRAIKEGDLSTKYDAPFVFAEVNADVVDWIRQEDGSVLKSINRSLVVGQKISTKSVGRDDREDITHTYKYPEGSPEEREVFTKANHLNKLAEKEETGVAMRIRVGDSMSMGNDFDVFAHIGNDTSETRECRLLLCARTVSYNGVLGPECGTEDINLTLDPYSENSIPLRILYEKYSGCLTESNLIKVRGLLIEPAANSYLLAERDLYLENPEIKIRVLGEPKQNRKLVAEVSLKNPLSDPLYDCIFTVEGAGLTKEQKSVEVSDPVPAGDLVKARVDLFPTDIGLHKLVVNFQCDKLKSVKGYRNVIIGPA
Experiment: affinity purification with mass spectrometry; TG2 immunoprecipitated from total brain homogenates of 18-month-old WT and APP23 mice with anti-TG2 antibody IA12 crosslinked to protein A/G magnetic beads, 22 h at 4 °C; IP lysis buffer 25 mM Tris pH 7.4, 150 mM NaCl, 1 mM EDTA, 1% NP40, 5% glycerol; on-bead trypsin digest, SWATH MS; TG2−/− cohorts as background, z-test p ≤ 0.05, n = 5 per cohort

binding: binds
B1: Fibrinogen gamma chain (protein, UniProt Q8VCM7 26-436)
chain: YVATRDNCCILDERFGSFCPTTCGIADFLSSYQTDVDNDLRTLEDILFRAENRTTEAKELIKAIQVYYNPDQPPKPGMIDSATQKSKKMVEEIVKYEALLLTHETSIRYLQEIYNSNNQKITNLKQKVAQLEAQCQEPCKDSVQIHDTTGKDCQEIANKGAKESGLYFIRPLKAKQQFLVYCEIDGSGNGWTVLQKRIDGSLDFKKNWIQYKEGFGHLSPTGTTEFWLGNEKIHLISMQSTIPYALRIQLKDWNGRTSTADYAMFRVGPESDKYRLTYAYFIGGDAGDAFDGYDFGDDPSDKFFTSHNGMQFSTWDNDNDKFEGNCAEQDGSGWWMNKCHAGHLNGVYHQGGTYSKSSTTNGFDDGIIWATWKSRWYSMKETTMKIIPFNRLSIGEGQQHHMGGSKQAGDV

binding: binds
B2: Secretogranin-2 (protein, UniProt Q03517 31-617)
chain: QRNQLLQKEPDLRLENVQKFPSPEMIRALEYIEKLRQQAHREESSPDYNPYQGVSVPLQLKENGEESHLAESSRDALSEDEWMRIILEALRQAENEPPSAPKENKPYALNLEKNFPVDTPDDYETQQWPERKLKHMRFPLMYEENSRENPFKRTNEIVEEQYTPQSLATLESVFQELGKLTGPSNQKRERVDEEQKLYTDDEDDVYKTNNIAYEDVVGGEDWSPIEEKIETQTQEEVRDSKENTEKNEQINEEMKRSGQLGLPDEENRRESKDQLSEDASKVITYLRRLVNAVGSGRSQSGPNGDRAARLLQKPLDSQSIYQLIEISRNLQIPPEDLIEMLKAGEKPNGLVEPEQDLELAVDLDDIPEADLDRPDMFQSKMLSKGGYPKAPGRGMVEALPDGLSVEDILNVLGMENVVNQKSPYFPNQYSQDKALMRLPYGPGKSRANQIPKVAWIPDVESRQAPYENLNDQELGEYLARMLVKYPELLNTNQLKRVPSPVSSEDDLQEEEQLEQAIKEHLGPGSSQEMERLAKVSKRIPVGSLKNEDTPNRQYLDEDMLLKVLEYLNQEQAEQGREHLAKRAMENM

binding: binds
B3: Ras-related protein Rap-2b (protein, UniProt P61226 1-183)
chain: MREYKVVVLGSGGVGKSALTVQFVTGSFIEKYDPTIEDFYRKEIEVDSSPSVLEILDTAGTEQFASMRDLYIKNGQGFILVYSLVNQQSFQDIKPMRDQIIRVKRYERVPMILVGNKVDLEGEREVSYGEGKALAEEWSCPFMETSAKNKASVDELFAEIVRQMNYAAQPNGDEGCCSACVIL

binding: binds
B4: Myelin proteolipid protein (protein, UniProt P60202 1-277)
chain: MGLLECCARCLVGAPFASLVATGLCFFGVALFCGCGHEALTGTEKLIETYFSKNYQDYEYLINVIHAFQYVIYGTASFFFLYGALLLAEGFYTTGAVRQIFGDYKTTICGKGLSATVTGGQKGRGSRGQHQAHSLERVCHCLGKWLGHPDKFVGITYALTVVWLLVFACSAVPVYIYFNTWTTCQSIAFPSKTSASIGSLCADARMYGVLPWNAFPGKVCGSNLLSICKTAEFQMTFHLFIAAFVGAAATLVSLLTFMIAATYNFAVLKLMGRGTKF

binding: binds
B5: NSFL1 cofactor p47 (protein, UniProt Q9CZ44 1-370)
chain: MAEERQDALREFVAVTGTEEDRARFFLESAGWDLQIALASFYEDGGDEDIVTISQATPSSVSRGTAPSDNRVTSFRDLIHDQDEEEEEEEGQRFYAGGSERSGQQIVGPPRKKSPNELVDDLFKGAKEHGAVAVERVTKSPGETSKPRPFAGGGYRLGAAPEEESAYVAGERRRHSGQDVHVVLKLWKTGFSLDNGDLRSYQDPSNAQFLESIRRGEVPAELRRLAHGGQVNLDMEDHRDEDFVKPKGAFKAFTGEGQKLGSTAPQVLNTSSPAQQAENEAKASSSILINEAEPTTNIQIRLADGGRLVQKFNHSHRISDIRLFIVDARPAMAATSFVLMTTFPNKELADENQTLKEANLLNAVIVQRLT

binding: binds
B6: Semaphorin-3C (protein, UniProt Q62181 21-751)
chain: GSSQPQARVYLTFDELRETKTSEYFSLSHQQLDYRILLMDEDQDRIYVGSKDHILSLNINNISQEPLSVFWPASTIKVEECKMAGKDPTHGCGNFVRVIQTFNRTHLYVCGSGAFSPVCTYLNRGRRSEDQVFMIDSKCESGKGRCSFNPNVNTVSVMINEELFSGMYIDFMGTDAAIFRSLTKRNAVRTDQHNSKWLSEPMFVDAHVIPDGTDPNDAKVYFFFKERLTDNNRSTKQIHSMIARICPNDTGGQRSLVNKWTTFLKARLVCSVTDEDGPETHFDELEDVFLLETDNPRTTLVYGIFTTSSSVFKGSAVCVYHLSDIQTVFNGPFAHKEGPNHQLISYQGRIPYPRPGTCPGGAFTPNMRTTKDFPDDVVTFIRNHPLMYNSIYPIHRRPLIVRIGTDYKYTKIAVDRVNAADGRYHVLFLGTDRGTVQKVVVLPTNSSASGELILEELEVFKNHVPITTMKISSKKQQLYVSSNEGVSQVSLHRCHIYGTACADCCLARDPYCAWDGHSCSRFYPTGKRRSRRQDVRHGNPLTQCRGFNLKAYRNAAEIVQYGVRNNSTFLECAPKSPQASIKWLLQKDKDRRKEVKLNERIIATSQGLLIRSVQDSDQGLYHCIATENSFKQTIAKINFKVLDSEMVAVVTDKWSPWTWAGSVRALPFHPKDILGAFSHSEMQLINQYCKDTRQQQQLGEEPQKMRGDYGKLKALINSRKSRNRRNQLPES

binding: binds
B7: Glutamate receptor ionotropic, delta-2 (protein, UniProt Q61625 24-1007)
chain: DSIIHIGAIFDESAKKDDEVFRTAVGDLNQNEEILQTEKITFSVTFVDGNNPFQAVQEACELMNQGILALVSSIGCTSAGSLQSLADAMHIPHLFIQRSTAGTPRSGCGLTRSNRNDDYTLSVRPPVYLNEVILRVVTEYAWQKFIIFYDSEYDIRGIQEFLDKVSQQGMDVALQKVENNINKMITTLFDTMRIEELNRYRDTLRRAILVMNPATAKSFISEVVETNLVAFDCHWIIINEEINDVDVQELVRRSIGRLTIIRQTFPVPQNISQRCFRGNHRISSSLCDPKDPFAQNMEISNLYIYDTVLLLANAFHKKLEDRKWHSMASLSCIRKNSKPWQGGRSMLETIKKGGVNGLTGDLEFGENGGNPNVHFEILGTNYGEELGRGVRKLGCWNPVTGLNGSLTDKKLENNMRGVVLRVVTVLEEPFVMVSENVLGKPKKYQGFSIDVLDALSNYLGFNYEIYVAPDHKYGSPQEDGTWNGLVGELVFKRADIGISALTITPDRENVVDFTTRYMDYSVGVLLRRAEKTVDMFACLAPFDLSLWACIAGTVLLVGLLVYLLNWLNPPRLQMGSMTSTTLYNSMWFVYGSFVQQGGEVPYTTLATRMMMGAWWLFALIVISSYTANLAAFLTITRIESSIQSLQDLSKQTDIPYGTVLDSAVYQHVRMKGLNPFERDSMYSQMWRMINRSNGSENNVLESQAGIQKVKYGNYAFVWDAAVLEYVAINDPDCSFYTVGNTVADRGYGIALQHGSPYRDVFSQRILELQQSGDMDILKHKWWPKNGQCDLYSSVDAKQKGGALDIKSLAGVFCILAAGIVLSCLIAVLETWWSRRKGSRVPSKEDDKEIDLEHLHRRVNSLCTDDDSPHKQFSTSSIDLTPLDIDTLPTRQALEQISDFRNTHITTTTFIPEQIQTLSRTLSAKAASGFAFGSVPEHRTGPFRHRAPNGGFFRSPIKTMSSIPYQPTPTLGLNLGNDPDRGTSI

binding: binds
B8: Serine/threonine-protein phosphatase 5 (protein, UniProt Q60676 1-499)
chain: MAMAEGERTECAETPRDEPPADGTLKRAEELKTQANDYFKAKDYENAIKFYSQAIELNPGNAIYYGNRSLAYLRTECYGYALGDATRAIELDKKYIKGYYRRAASNMALGKFRAALRDYETVVKVKPNDKDAKMKYQECSKIVKQKAFERAIAGDEHRRSVVDSLDIESMTIEDEYSGPKLEDGKVTITFMKDLMQWYKDQKKLHRKCAYQILVQVKEVLCKLSTLVETTLKETEKITVCGDTHGQFYDLLNIFELNGLPSETNPYIFNGDFVDRGSFSVEVILTLFGFKLLYPDHFHLLRGNHETDNMNQIYGFEGEVKAKYTAQMYELFSEVFEWLPLAQCINGKVLIMHGGLFSEDGVTLDDIRKIERNRQPPDSGPMCDLLWSDPQPQNGRSVSKRGVSCQFGPDVTKAFLEENQLDYIIRSHEVKAEGYEVAHGGRCVTVFSAPNYCDQMGNKASYIHLQGSDLRPQFHQFTAVPHPNVKPMAYANTLLQLGMM

binding: binds
B9: PRA1 family protein 3 (protein, UniProt Q8R5J9 1-188)
chain: MDVNLAPLRAWDDFFPGSDRFARPDFRDISKWNNRVVSNLLYYQTNYLVVAAMMISVVGFLSPFNMILGGVIVVLVFMGFVWAAHNKDILRRMKKQYPTAFVMVVMLASYFLISMFGGVMVFVFGITLPLLLMFIHASLRLRNLKNKLENKMEGIGLKKTPMGIILDALEQQEDNINKFADYISKARE

binding: binds
B10: Ubiquitin carboxyl-terminal hydrolase CYLD (protein, UniProt Q80TQ2 1-952)
chain: MSSGLWSQEKVTSPYWEERIFYLLLQECSVTDKQTQKLLKVPKGSIGQYIQDRSVGHSRVPSTKGKKNQIGLKILEQPHAVLFVDEKDVVEINEKFTELLLAITNCEERLSLFRNRLRLSKGLQVDVGSPVKVQLRSGEEKFPGVVRFRGPLLAERTVSGIFFGVELLEEGRGQGFTDGVYQGKQLFQCDEDCGVFVALDKLELIEDDDNGLESDFAGPGDTMQVEPPPLEINSRVSLKVGESTESGTVIFCDVLPGKESLGYFVGVDMDNPIGNWDGRFDGVQLCSFASVESTILLHINDIIPDSVTQERRPPKLAFMSRGVGDKGSSSHNKPKVTGSTSDPGSRNRSELFYTLNGSSVDSQQSKSKNPWYIDEVAEDPAKSLTEMSSDFGHSSPPPQPPSMNSLSSENRFHSLPFSLTKMPNTNGSMAHSPLSLSVQSVMGELNSTPVQESPPLPISSGNAHGLEVGSLAEVKENPPFYGVIRWIGQPPGLSDVLAGLELEDECAGCTDGTFRGTRYFTCALKKALFVKLKSCRPDSRFASLQPVSNQIERCNSLAFGGYLSEVVEENTPPKMEKEGLEIMIGKKKGIQGHYNSCYLDSTLFCLFAFSSALDTVLLRPKEKNDIEYYSETQELLRTEIVNPLRIYGYVCATKIMKLRKILEKVEAASGFTSEEKDPEEFLNILFHDILRVEPLLKIRSAGQKVQDCNFYQIFMEKNEKVGVPTIQQLLEWSFINSNLKFAEAPSCLIIQMPRFGKDFKLFKKIFPSLELNITDLLEDTPRQCRICGGLAMYECRECYDDPDISAGKIKQFCKTCSTQVHLHPRRLNHSYHPVSLPKDLPDWDWRHGCIPCQKMELFAVLCIETSHYVAFVKYGKDDSAWLFFDSMADRDGGQNGFNIPQVTPCPEVGEYLKMSLEDLHSLDSRRIQGCARRLLCDAYMCMYQSPTMSLYK

From article PMC8834516
